From US20160216264A1 (WASHINGTON UNIVERSITY, published 2016)
No constants are given. Whether binding was seen depends on the method and setting. Binding calls can cover weak binding; strength is not graded here.

Tests used:
[1] = molecular target: recombinant MIOX (rMIOX), thrombin-cleaved from GST-MIOX (human); test: Western blot
[2] = molecular target: human myo-inositol oxygenase (MIOX) (human); test: Western blot of human kidney homogenate
[3] = molecular target: human myo-inositol oxygenase (MIOX) (human); test: Western blot of normal human kidney homogenate

- binding [1]: binds
- binding [2]: binds
- binding [3]: binds
B1: mouse monoclonal anti-MIOX antibody 12H06 (antibody, IgG2b, V domains shown)
VH: QVQLQQPGAELVRPGTSVKLSCKASGYTFTSYWMHWVKQRPGQGLEWIGLIDPSDSYTNYNQKFKGKATLTVDTSSSTASMQLSSLTSEDSAVYYCVRTYYHSSYFFAYWGQGTLVTVSS
VL: DIVVTQSPASFAVSLGQRATISCRASKSVSTSGYSYINWYQQKPGQPPKLLIYLASNLESGVPARFSGSGSGTDFTLNIHPVEEEDAATYYCQHSRELPLTFGAGTRLELK
notes: the VH entry runs a few residues into CH1; also called mAb 12H06
